Some entries share one result that the patent states for a list of compounds.
Molecular target: T1, KRas wild-type (Homo sapiens, UniProt P01116)
T1 construct: host or cells: MKN-45
Assay: MKN-45 Cellular Active RAS GTPase ELISA (KRas Wild-type)
Format: cell-based
Settings: PANC-1 versus MKN-45 Cellular Active RAS GTPase ELISA

| Compound | selective inhibition preference for KRas G12D mutant over KRas wild-type |
| --- | --- |
| COCCCN1CC2CCC(C1)N2c1nc(OC[C@@]23CCCN2C[C@H](F)C3)nc2c(F)c(-c3ccnc4sc(N)c(C#N)c34)c3c(c12)COC3 [Example 348, 2-Amino-4-[5-fluoro-3-[[(2R,8S)-2-fluoro-1,2,3,5,6,7-hexahydropyrrolizin-8-yl]methoxy]-1-[3-(3-methoxypropyl)-3,8-diazabicyclo[3.2.1]octan-8-yl]-7,9-dihydrofuro[3,4-f]quinazolin-6-yl]thieno[2,3-b]pyridine-3-carbonitrile] | greater than 10 fold |
| N#Cc1c(N)sc2ccc(F)c(-c3c4c(c5c(N6C7CCC6CN(CCCCO)C7)ncnc5c3F)COC4)c12 (single isomer, unassigned) [Example 156, 2-Amino-5-fluoro-4-[5-fluoro-1-[3-(4-hydroxybutyl)-3,8-diazabicyclo[3.2.1]octan-8-yl]-7,9-dihydrofuro[3,4-f]quinazolin-6-yl]benzothiophene-3-carbonitrile] | greater than 10 fold |
| CN1CC2CC(C1)N2c1nc(OC[C@@]23CCCN2C[C@H](F)C3)nc2c(F)c(-c3ncc(F)c4sc(N)c(C#N)c34)c3c(c12)COC3 [Example 343, 2-Amino-7-fluoro-4-[5-fluoro-3-[[(2R,8S)-2-fluoro-1,2,3,5,6,7-hexahydropyrrolizin-8-yl]methoxy]-1-(3-methyl-3,6-diazabicyclo[3.1.1]heptan-6-yl)-7,9-dihydrofuro[3,4-f]quinazolin-6-yl]thieno[3,2-c]pyridine-3-carbonitrile] | greater than 10 fold |
| CN1CC2CCC(C1)N2c1nc(OC[C@@]23CCCN2C[C@H](F)C3)nc2c(F)c(-c3cccc4oc(N)c(C#N)c34)c3c(c12)COC3 [Example 54, 2-Amino-4-[5-fluoro-3-[[(2R,8S)-2-fluoro-1,2,3,5,6,7-hexahydropyrrolizin-8-yl]methoxy]-1-(3-methyl-3,8-diazabicyclo[3.2.1]octan-8-yl)-7,9-dihydrofuro[3,4-f]quinazolin-6-yl]benzofuran-3-carbonitrile] | greater than 10 fold |
| C[C@@H](O)CN1CC2CCC(C1)N2c1nc(OC[C@@H]2C[C@@H](F)CN2C)nc2c(F)c(-c3c(F)ccc4sc(N)c(C#N)c34)c3c(c12)COC3 (single isomer, unassigned) [Example 178] | greater than 10 fold |
| COCCCN1CC2CCC(C1)N2c1nc(OC[C@@H]2CCCN2C)nc2c(F)c(-c3c(F)ccc4sc(N)c(C#N)c34)c3c(c12)COC3 (single isomer, unassigned) [Example 151] | greater than 10 fold |
| N#Cc1c(N)sc2cccc(-c3c4c(c5c(N6C7CCC6CN(CCCO)C7)nc(OC[C@@]67CCCN6C[C@H](F)C7)nc5c3F)COC4)c12 [Example 48, 2-Amino-4-[5-fluoro-3-[[(2R,8S)-2-fluoro-1,2,3,5,6,7-hexahydropyrrolizin-8-yl]methoxy]-1-[3-(3-hydroxypropyl)-3,8-diazabicyclo[3.2.1]octan-8-yl]-7,9-dihydrofuro[3,4-f]quinazolin-6-yl]benzothiophene-3-carbonitrile] | greater than 10 fold |
| CN1CC2CC(C1)N2c1nc(OC[C@@H]2C[C@@H](F)CN2C)nc2c(F)c(-c3c(F)ccc4sc(N)c(C#N)c34)c3c(c12)COC3 (single isomer, unassigned) [Example 153] | greater than 10 fold |
| CC(O)CCN1CC2CC(C1)N2c1nc(OC[C@@]23CCCN2C[C@H](F)C3)nc2c(F)c(-c3c(F)ccc4sc(N)c(C#N)c34)c3c(c12)COC3 (single isomer, unassigned) [Example 96] | greater than 10 fold |
| COCCCN1CC2CCC(C1)N2c1nc(OCC23CCCN2CC(OC)C3)nc2c(F)c(-c3ncc(F)c4sc(N)c(C#N)c34)c3c(c12)COC3 (stereo not shown) [Example 229, 2-Amino-7-fluoro-4-[5-fluoro-3-[(2-methoxy-1,2,3,5,6,7-hexahydropyrrolizin-8-yl)methoxy]-1-[3-(3-methoxypropyl)-3,8-diazabicyclo[3.2.1]octan-8-yl]-7,9-dihydrofuro[3,4-f]quinazolin-6-yl]thieno[3,2-c]pyridine-3-carbonitrile] | greater than 10 fold |
| N#Cc1c(N)sc2ccc(F)c(-c3c4c(c5c(N6C7CCC6CN(CCCO)C7)nc(OCCN6CC[C@H](F)C6)nc5c3F)COC4)c12 (single isomer, unassigned) [Example 145] | greater than 10 fold |
| N#Cc1c(N)sc2ccc(F)c(-c3c4c(c5c(N6C7CCC6CNC7)ncnc5c3F)COC4)c12 (single isomer, unassigned; isomer 2) [Example 1, 2-Amino-4-[1-(3,8-diazabicyclo[3.2.1]octan-8-yl)-5-fluoro-7,9-dihydrofuro[3,4-f]quinazolin-6-yl]-5-fluoro-benzothiophene-3-carbonitrile, Isomer 2] | greater than 10 fold |
| N#Cc1c(N)sc2ccnc(-c3c4c(c5c(N6C7CCC6CNC7)nc(OC[C@@]67CCCN6C[C@H](F)C7)nc5c3F)COC4)c12 [Example 26, 2-Amino-4-[1-(3,8-diazabicyclo[3.2.1]octan-8-yl)-5-fluoro-3-[[(2R,8S)-2-fluoro-1,2,3,5,6,7-hexahydropyrrolizin-8-yl]methoxy]-7,9-dihydrofuro[3,4-f]quinazolin-6-yl]thieno[3,2-c]pyridine-3-carbonitrile] | greater than 10 fold |
| C[C@@H](O)CN1CC2CCC(C1)N2c1nc(OC[C@@H]2CCN2CCO)nc2c(F)c(-c3c(F)ccc4sc(N)c(C#N)c34)c3c(c12)COC3 (single isomer, unassigned) [Example 180] | greater than 10 fold |
| N#Cc1c(N)sc2ccc(F)c(-c3c4c(c5c(N6C7CCC6CN(CCCO)C7)nc(OCCN6CCOCC6)nc5c3F)COC4)c12 (single isomer, unassigned) [Example 146, 2-Amino-5-fluoro-4-[5-fluoro-1-[3-(3-hydroxypropyl)-3,8-diazabicyclo[3.2.1]octan-8-yl]-3-(2-morpholinoethoxy)-7,9-dihydrofuro[3,4-f]quinazolin-6-yl]benzothiophene-3-carbonitrile] | greater than 10 fold |
| COCCCN1CC2CCC(C1)N2c1nc(OC[C@@]23CCCN2C[C@H](OC)C3)nc2c(F)c(-c3ncc(F)c4sc(N)c(C#N)c34)c3c(c12)COC3 [Example 232, 2-Amino-7-fluoro-4-[5-fluoro-3-[[(2R,8S)-2-methoxy-1,2,3,5,6,7-hexahydropyrrolizin-8-yl]methoxy]-1-[3-(3-methoxypropyl)-3,8-diazabicyclo[3.2.1]octan-8-yl]-7,9-dihydrofuro[3,4-f]quinazolin-6-yl]thieno[3,2-c]pyridine-3-carbonitrile] | greater than 10 fold |
| COCCCN1CC2CCC(C1)N2c1nc(OC[C@@]23CCCN2C[C@@H](F)C3)nc2c(F)c(-c3ncc(F)c4sc(N)c(C#N)c34)c3c(c12)COC3 (racemic) [Example 241, 2-Amino-7-fluoro-4-[5-fluoro-3-[[(2SR,8SR)-2-fluoro-1,2,3,5,6,7-hexahydropyrrolizin-8-yl]methoxy]-1-[3-(3-methoxypropyl)-3,8-diazabicyclo[3.2.1]octan-8-yl]-7,9-dihydrofuro[3,4-f]quinazolin-6-yl]thieno[3,2-c]pyridine-3-carbonitrile] | greater than 10 fold |
| N#Cc1c(N)oc2ccc(F)c(-c3c4c(c5c(N6C7CCC6CNC7)ncnc5c3F)COC4)c12 (single isomer, unassigned; isomer 2) [Example 15, 2-Amino-4-[1-(3,8-diazabicyclo[3.2.1]octan-8-yl)-5-fluoro-7,9-dihydrofuro[3,4-f]quinazolin-6-yl]-5-fluoro-benzofuran-3-carbonitrile, Isomer 2] | greater than 10 fold |
| C[C@@H](O)CN1CC2CCC(C1)N2c1nc(OC[C@@]23CCCN2C[C@H](F)C3)nc2cc(-c3cccc4sc(N)c(C#N)c34)c3c(c12)COC3 [Example 175, 2-Amino-4-[3-[[(2R,8S)-2-fluoro-1,2,3,5,6,7-hexahydropyrrolizin-8-yl]methoxy]-1-[3-[(2R)-2-hydroxypropyl]-3,8-diazabicyclo[3.2.1]octan-8-yl]-7,9-dihydrofuro[3,4-f]quinazolin-6-yl]benzothiophene-3-carbonitrile] | greater than 10 fold |
| CN1CC2CC(C1)N2c1nc(OC[C@@H]2C[C@@H](F)CN2C)nc2c(F)c(-c3ncc(F)c4sc(N)c(C#N)c34)c3c(c12)COC3 [Example 341, 2-Amino-7-fluoro-4-[5-fluoro-3-[[(2S,4R)-4-fluoro-1-methyl-pyrrolidin-2-yl]methoxy]-1-(3-methyl-3,6-diazabicyclo[3.1.1]heptan-6-yl)-7,9-dihydrofuro[3,4-f]quinazolin-6-yl]thieno[3,2-c]pyridine-3-carbonitrile] | greater than 10 fold |
| N#Cc1c(N)sc2c(F)cnc(-c3c4c(c5c(N6C7CCC6CN(C[C@H]6CCO6)C7)nc(OC[C@@]67CCCN6C[C@H](F)C7)nc5c3F)COC4)c12 [Example 123, 2-Amino-7-fluoro-4-[5-fluoro-3-[[(2R,8S)-2-fluoro-1,2,3,5,6,7-hexahydropyrrolizin-8-yl]methoxy]-1-[3-[[(2R)-oxetan-2-yl]methyl]-3,8-diazabicyclo[3.2.1]octan-8-yl]-7,9-dihydrofuro[3,4-f]quinazolin-6-yl]thieno[3,2-c]pyridine-3-carbonitrile] | greater than 10 fold |
| N#Cc1c(N)sc2c(F)ccc(-c3c4c(c5c(N6C7CCC6CN(CCCO)C7)nc(OC[C@@]67CCCN6C[C@H](F)C7)nc5c3F)COC4)c12 [Example 100, 2-Amino-7-fluoro-4-[5-fluoro-3-[[(2R,8S)-2-fluoro-1,2,3,5,6,7-hexahydropyrrolizin-8-yl]methoxy]-1-[3-(3-hydroxypropyl)-3,8-diazabicyclo[3.2.1]octan-8-yl]-7,9-dihydrofuro[3,4-f]quinazolin-6-yl]benzothiophene-3-carbonitrile] | greater than 10 fold |

Source: patent US12351591B2, “KRas inhibitors” (ELI LILLY AND COMPANY, priority 2022, dated 2025)
